This passage reports binding results from publication PMC11932694.

This assay deals with T1, Flag-ORMDL3 (human) (UniProt Q8N138).
T1 sequence: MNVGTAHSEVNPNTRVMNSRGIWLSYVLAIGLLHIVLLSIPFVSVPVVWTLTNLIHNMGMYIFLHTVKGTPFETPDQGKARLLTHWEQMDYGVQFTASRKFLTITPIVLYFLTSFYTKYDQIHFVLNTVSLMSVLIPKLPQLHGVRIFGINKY
The assay can be described thus: co-IP; HEK293T cells co-transfected with MAVS truncations and EV or Flag-ORMDL3; lysates immunoprecipitated with anti-Flag antibody, blots with anti-HA and anti-Flag.

These are yes or no findings as the source states them, for the method shown. Binding seen in cells or lysates may run through a third protein. Tags and fused reporters may be left off the sequences shown.

Consider “MAVS with the transmembrane domain (TM) deleted (domain or fragment)”, for which the binding entry is on record as “no binding”.
